Values joined by “and” are separate entries in the source; they are usually repeats but may differ in a detail not shown here. Identical values can stand only once. Counter-ions that a name gives are not always drawn. Some of the results follow. Repeats in this data set agree poorly, so a single value says little.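 A first-round screen of about ten thousand compounds sought those raising reporter output, using human embryonic kidney cells briefly transfected with a plasmid carrying a Renilla luciferase gene driven by the HSV-TK promoter.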
What follows are molecules tested on HEK 293FT (assay: log relative Renilla luciferase luminescence (reporter expression vs reference, reference not stated) (log (base not stated)); higher = higher recombinant reporter expression). Details: 10 µM; time after transfection 48 h.
With `C[C@@H]1O[C@@H](O[C@H]2[C@H](OC(=O)[C@]34CCC(C)(C)C[C@H]3C3=CC[C@@H]5[C@@]6(C)C[C@H](O)[C@@H]7O[C@@H]8O[C@H](CO)[C@@H](O)[C@H](O)[C@H]8O[C@@H]8OC[C@H](O)[C@H](O)[C@H]8OC(=O)CC(C)(O)CC(=O)OC[C@@]7(C)[C@@H]6CC[C@@]5(C)[C@]3(C)CC4)OC[C@H](O)[C@@H]2O)[C@H](O)[C@H](O[C@@H]2OC[C@@H](O)[C@H](O)[C@H]2O)[C@H]1O` (stereo partly specified) [Tubeimoside A] the log was -0.0101.
For `COc1cc(NS(=O)(=O)c2ccc(NC(C)=O)cc2)nc(OC)n1` [Acetylsulfadimethoxine], the log was 0.224.
In the case of `Cn1c(=O)c2c(ncn2CC(=O)O)n(C)c1=O` [Acefylline], the log is reported as 0.0234.
`C[C@@H]1CN(c2c(F)c(F)c3c(=O)c(C(=O)O)cn(C4CC4)c3c2F)C[C@H](C)N1` [Orbifloxacin] showed a log of 0.084.
For `O=C(CC(=O)Nc1ccc(C(=O)O)cc1)Nc1ccc(C(=O)O)cc1` [Malaben], the log was 0.0165.
For `Cc1ccc(C(C)C)cc2c(C)ccc1-2` [Guaiazulene], the log was 0.04.
Work on `O=C(c1cc2ccccc2o1)N1CCN(Cc2ccccc2)CC1` [Befuraline] yielded a log of -0.627.
Molecule `Cc1c(C(=O)NN2CCCCC2)nn(-c2ccc(Cl)cc2Cl)c1-c1ccc(Cl)cc1` [Rimonabant Hydrochloride] has a log of -0.2.
In the case of `O=c1cc(-c2ccc(O)cc2)oc2ccc(O)cc12`, the log is reported as 0.0334.
Molecule `O=C(/C=C/c1ccccc1)c1ccccc1` [Chalcone] has a log of 0.152.

Test system: HEK 293FT
Assay: as above
Details: 10 µM; time after transfection 48 h
Remark: another data set of the same source
With `O=C(Nc1ccccc1)c1cc([N+](=O)[O-])ccc1Cl` the log was 0.0598.
`CC1(COc2ccc(CC3SC(=O)NC3=O)cc2)CCCCC1` (stereo unspecified) [Ciglitazone] showed a log of -0.315.
In the case of `C[S+]([O-])c1ccc(-c2nc(-c3ccc(F)cc3)c(-c3ccncc3)[nH]2)cc1` (stereo unspecified), the log is reported as -0.0983 and -0.076.
For `Clc1ccc(-c2nc3sccn3c2/C=N/OCc2ccc(Cl)c(Cl)c2)cc1`, the log was -0.0358.
`COC(=O)C1=C(C)NC(C)=C(C(=O)OC)C1c1ccccc1[N+](=O)[O-]` [Nifedipine] was tested, and the log was -0.0863.
With `CCCCOc1cc(CC2CNC(=O)N2)ccc1OC` (stereo unspecified) the log was 0.0915.
`COc1cc(-c2ccc(=O)[nH]n2)ccc1OC(F)F` [Zardaverine] showed a log of -0.0609.
Work on `O=c1cc(N2CCOCC2)oc2c(-c3ccccc3)cccc12` yielded a log of 0.1.
`Oc1cc2c(cc1O)CN(C(=S)NCCc1ccc(Cl)cc1)CCC2` [Capsazepine] showed a log of 0.123.
Molecule `O=C1NC(=O)C(c2ccccc2[N+](=O)[O-])=C1Nc1ccc(O)c(Cl)c1` has a log of 0.0569.
`CN(CCc1ccc(Cl)c(Cl)c1)CC(O)COc1ccc(NS(C)(=O)=O)cc1` (stereo unspecified) showed a log of -0.135.
With `Nc1ncnc2c1ncn2C1CCCO1` (stereo unspecified) the log was 0.0207.
Work on `C[C@@H]1C[C@H]2[C@@H]3CCC4=CC(=O)C=C[C@]4(C)[C@@]3(F)[C@@H](O)C[C@]2(C)[C@@]1(O)C(=O)CO` [Dexamethasone] yielded a log of 0.0915.
`Cc1ccc(S(=O)(=O)/C=C/C#N)cc1` showed a log of 0.0127.
`COc1cccc(-c2cc(=O)c3ccccc3o2)c1N` was tested, and the log was 0.131.
In the case of `Oc1cc(O)cc(/C=C/c2ccc(O)c(O)c2)c1` [Piceatannol], the log is reported as 0.203.

Source: the supplement of paper PMC7024190
